Assay [1] has as its target T1, Flag-ERRα (UniProt P11474).
T1 sequence: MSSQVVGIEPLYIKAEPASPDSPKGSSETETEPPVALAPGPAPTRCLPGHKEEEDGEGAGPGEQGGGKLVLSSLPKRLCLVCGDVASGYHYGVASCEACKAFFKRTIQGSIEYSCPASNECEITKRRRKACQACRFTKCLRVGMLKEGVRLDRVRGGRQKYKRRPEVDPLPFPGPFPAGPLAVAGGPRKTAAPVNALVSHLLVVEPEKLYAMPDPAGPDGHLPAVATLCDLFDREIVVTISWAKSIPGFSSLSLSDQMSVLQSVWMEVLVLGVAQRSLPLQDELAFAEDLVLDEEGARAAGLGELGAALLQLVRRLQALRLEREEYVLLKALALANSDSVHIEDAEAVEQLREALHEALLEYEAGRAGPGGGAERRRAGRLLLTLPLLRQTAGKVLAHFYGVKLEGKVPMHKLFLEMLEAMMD
The assay is described as follows: co-IP.

Assay [2] addresses T2, endogenous TBK1 (human (endogenous in 293T)) (UniProt Q9UHD2).
T2 sequence: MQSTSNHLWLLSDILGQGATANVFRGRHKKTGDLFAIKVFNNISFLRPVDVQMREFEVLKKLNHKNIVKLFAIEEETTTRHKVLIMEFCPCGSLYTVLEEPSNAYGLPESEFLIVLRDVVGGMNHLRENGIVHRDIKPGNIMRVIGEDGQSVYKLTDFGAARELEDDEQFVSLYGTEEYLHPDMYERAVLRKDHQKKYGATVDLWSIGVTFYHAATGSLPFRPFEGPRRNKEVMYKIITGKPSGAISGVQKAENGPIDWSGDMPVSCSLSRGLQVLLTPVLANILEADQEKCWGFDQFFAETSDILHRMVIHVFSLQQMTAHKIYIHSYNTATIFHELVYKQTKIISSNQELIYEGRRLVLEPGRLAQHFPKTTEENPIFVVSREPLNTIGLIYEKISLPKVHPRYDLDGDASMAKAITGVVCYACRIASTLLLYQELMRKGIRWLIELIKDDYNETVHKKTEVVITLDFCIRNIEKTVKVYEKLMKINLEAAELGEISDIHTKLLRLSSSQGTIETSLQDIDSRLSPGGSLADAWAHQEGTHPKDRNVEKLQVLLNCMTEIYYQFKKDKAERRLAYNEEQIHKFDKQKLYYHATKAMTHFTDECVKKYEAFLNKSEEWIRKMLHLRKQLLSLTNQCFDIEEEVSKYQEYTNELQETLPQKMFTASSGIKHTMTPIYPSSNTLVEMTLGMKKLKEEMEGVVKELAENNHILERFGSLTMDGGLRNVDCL
In words: proximity ligation.

In a further assay the target is T3, Flag-IRF3 (human, UniProt Q14653 1-427).
T3 construct: not shown: Flag, N-terminal, kept
T3 sequence (looked up): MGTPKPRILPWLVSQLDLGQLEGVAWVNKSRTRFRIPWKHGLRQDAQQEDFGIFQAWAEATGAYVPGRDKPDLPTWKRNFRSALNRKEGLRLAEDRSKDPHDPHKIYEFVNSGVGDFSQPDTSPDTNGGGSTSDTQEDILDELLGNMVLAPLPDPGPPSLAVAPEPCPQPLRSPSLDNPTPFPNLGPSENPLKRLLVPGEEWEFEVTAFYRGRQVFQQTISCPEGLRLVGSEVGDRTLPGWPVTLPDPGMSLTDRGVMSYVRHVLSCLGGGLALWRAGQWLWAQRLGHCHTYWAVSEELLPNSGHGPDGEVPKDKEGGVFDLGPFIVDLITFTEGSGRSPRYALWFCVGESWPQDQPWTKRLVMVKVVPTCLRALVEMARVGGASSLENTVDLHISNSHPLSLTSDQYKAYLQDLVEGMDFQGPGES
The assay is described as follows: co-IP.

The target in a further assay is T4, HA-IKKε (UniProt Q14164).
T4 sequence: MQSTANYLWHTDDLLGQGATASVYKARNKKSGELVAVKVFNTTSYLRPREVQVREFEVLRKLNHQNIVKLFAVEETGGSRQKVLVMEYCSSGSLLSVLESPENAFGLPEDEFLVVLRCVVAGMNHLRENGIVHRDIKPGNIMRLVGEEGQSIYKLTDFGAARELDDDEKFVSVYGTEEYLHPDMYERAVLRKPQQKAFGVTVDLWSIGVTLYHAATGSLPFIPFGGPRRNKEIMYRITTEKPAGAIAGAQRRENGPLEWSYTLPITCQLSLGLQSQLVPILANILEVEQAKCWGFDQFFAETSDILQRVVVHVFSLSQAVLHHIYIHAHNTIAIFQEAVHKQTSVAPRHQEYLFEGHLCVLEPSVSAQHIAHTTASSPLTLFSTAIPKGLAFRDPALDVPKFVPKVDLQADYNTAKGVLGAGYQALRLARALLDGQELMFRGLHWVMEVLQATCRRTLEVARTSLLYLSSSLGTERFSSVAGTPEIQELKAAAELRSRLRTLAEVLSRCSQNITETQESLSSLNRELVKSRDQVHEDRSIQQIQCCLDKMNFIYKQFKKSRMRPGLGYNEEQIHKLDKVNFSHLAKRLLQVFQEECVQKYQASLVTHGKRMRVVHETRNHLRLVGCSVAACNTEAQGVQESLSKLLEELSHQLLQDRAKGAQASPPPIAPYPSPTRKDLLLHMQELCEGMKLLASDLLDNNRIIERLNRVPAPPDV
The assay is described as follows: co-IP.

In a further assay the target is T5, HA-TBK1 (UniProt Q9UHD2).
T5 sequence: T2 sequence
The assay is described as follows: co-IP.

Assay [3] has as its target T2, endogenous TBK1 (human (endogenous in 293T)). In words: co-IP.
The target is the same in assay [4]. In words: proximity ligation. This is another data set of the same source.
For another assay, the target named is T6, GST-ERRα fusion protein (UniProt P11474).
T6 sequence: T1 sequence
In words: pull-down; lysates of 293T cells with ectopic Flag-TBK1 or Flag-IRF3 incubated with GST or the GST-ERRα fusion protein; only the target purified.

Assay [5] has as its target T1, Flag-ERRα. In words: co-IP. The source holds these as a separate data set.

Read-outs that look alike come from different tables or passages of the source. These are yes or no findings as the source states them, for the method shown. Binding seen in cells or lysates may run through a third protein. Some entries that bind do so weakly or less than the wild type. For some of these results: Sequences can lack the tags named with a protein.

HA-IRF3 (from UniProt Q14653 1-427): in the assay with Flag-ERRα [1], the binding entry was “binds”. As to “endogenous IRF3 (from UniProt Q14653 1-427)”, in [2], the binding result is on record as “binds”.

B1: Myc-ERRα (protein, UniProt P11474 1-423)
chain: T1 sequence
B1: the binding entry with Flag-IRF3, with HA-IKKε and with HA-TBK1 was “binds” in each case.

B2: endogenous ERRα (protein, UniProt P11474 1-423)
chain: T1 sequence
With B2, the binding entry in assay [3] and in assay [4] was “binds” each time.

B3: Flag-TBK1 (enzyme, UniProt Q9UHD2 1-729)
chain: T2 sequence
With B3, the binding result with GST-ERRα fusion protein is given as “binds”.

B4: HA-IKKε (enzyme, UniProt Q14164 1-716)
chain: T4 sequence
For the molecule B4, the binding entry in the assay with Flag-IRF3 and with Flag-ERRα [5] was “binds” each time.

The values are drawn from paper PMC5476288 (PLoS Pathogens, 2017).
